For one molecule, binding results are on record in article PMC8304009.

No constants are given. Whether binding was seen depends on the method and setting. Binding seen in cells or lysates may run through a third protein. A result given as binding can be weak or reduced; the word gives no strength. Sequences can lack the tags named with a protein.

This assay concerns the target Cyclin T (human). The assay can be described thus: co-IP; transiently transfected HEK293T cells; lysis buffer 20 mM Tris-Cl pH 7.5, 0.5% NP-40, 150 mM NaCl; immunoprecipitation with anti-Flag antibody and protein G-agarose at 4 °C; Western blot. On the technique in general: In western blotting, separated proteins are transferred to a membrane and probed.

B1: HA-OGFOD1 (protein, UniProt Q8N543 1-542)
chain: MNGKRPAEPGPARVGKKGKKEVMAEFSDAVTEETLKKQVAEAWSRRTPFSHEVIVMDMDPFLHCVIPNFIQSQDFLEGLQKELMNLDFHEKYNDLYKFQQSDDLKKRREPHISTLRKILFEDFRSWLSDISKIDLESTIDMSCAKYEFTDALLCHDDELEGRRIAFILYLVPPWDRSMGGTLDLYSIDEHFQPKQIVKSLIPSWNKLVFFEVSPVSFHQVSEVLSEEKSRLSISGWFHGPSLTRPPNYFEPPIPRSPHIPQDHEILYDWINPTYLDMDYQVQIQEEFEESSEILLKEFLKPEKFTKVCEALEHGHVEWSSRGPPNKRFYEKAEESKLPEILKECMKLFRSEALFLLLSNFTGLKLHFLAPSEEDEMNDKKEAETTDITEEGTSHSPPEPENNQMAISNNSQQSNEQTDPEPEENETKKESSVPMCQGELRHWKTGHYTLIHDHSKAEFALDLILYCGCEGWEPEYGGFTSYIAKGEDEELLTVNPESNSLALVYRDRETLKFVKHINHRSLEQKKTFPNRTGFWDFSFIYYE
For the molecule B1, the binding entry is “binds”.
